Reference: the supplement of paper PMC12542422
Structures can show the parent of a compound that is named as a salt. ± gives the standard deviation of the averaged measurements. This is one part of the list. These are raw signals, not scaled to a control.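 Across three biological replicates, HeLa cells were imaged for ribosome assembly using ENP1 staining (export block present or absent) or inducible tagged ribosomal protein reporters. Machine learning classified each cell's signal localization relative to DMSO controls. Hits exceeded the DMSO false-positive mean by five standard deviations and were then visually confirmed.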

System: HeLa RPS2-YFP reporter
Assay: fraction of reporter-positive cells with nuclear (nucleolar or nucleolar/nucleoplasmic) RPS2-YFP (MainHitrate); higher = more cells with nucleolar/nuclear readout signal (for ENP1 -LMB: less RNAPI inhibition; for +LMB ENP1 and RP reporters: stronger nuclear/nucleolar retention, i.e. ribosome biogenesis defect)
Conditions: concentration: 1 µM; treatment time: 6 h

Structure (SMILES) | fraction of reporter-positive cells with nuclear
CCCC(CCC)C(=O)O [Valproic acid sodium salt (Sodium valproate)] | 0.12 ± 0.067
Cc1cc(C(C)(C)C)c(O)c(C)c1CC1=NCCN1 [Oxymetazoline hydrochloride] | 0.111 ± 0.081
Cc1ccc(S(=O)(=O)NC(=O)NN2CC3CCCC3C2)cc1 (centres undefined) [Gliclazide (Diamicron)] | 0.125 ± 0.088
CCCCC(=O)N(Cc1ccc(-c2ccccc2-c2nnn[nH]2)cc1)[C@H](C(=O)O)C(C)C [Valsartan (Diovan)] | 0.177 ± 0.087
Fc1ccc([C@@H]2CCNC[C@H]2COc2ccc3c(c2)OCO3)cc1 [Paroxetine HCl] | 0.122 ± 0.08
CN/C(=N\CCSCc1nc[nH]c1C)NC#N [Cimetidine (Tagamet)] | 0.113 ± 0.084
CC(C)OC(=O)C(C(=O)OC(C)C)=C1SC=CS1 [Malotilate] | 0.0907 ± 0.057
O=C1OC(CN2CCOCC2)CN1/N=C/c1ccc([N+](=O)[O-])o1 (centres undefined) [Furaltadone HCl] | 0.122 ± 0.1
Cc1cnc(C(=O)NCCc2ccc(S(=O)(=O)NC(=O)NC3CCCCC3)cc2)cn1 [Glipizide (Glucotrol)] | 0.106 ± 0.07
CC(=O)[C@H]1CC[C@H]2[C@@H]3CC=C4C[C@@H](O)CC[C@]4(C)[C@H]3CC[C@]12C [Pregnenolone] | 0.122 ± 0.072
Nc1ccn([C@@H]2CS[C@H](CO)O2)c(=O)n1 [Lamivudine (Epivir)] | 0.109 ± 0.083
CC(N)C12CC3CC(CC(C3)C1)C2 (centres undefined) [Rimantadine (Flumadine)] | 0.0631 ± 0.035
CCC[C@@H]1C[C@@H](C(=O)N[C@@H]([C@H]2O[C@H](SC)[C@H](O)[C@@H](O)[C@H]2O)[C@@H](C)O)N(C)C1 [Lincomycin hydrochloride (Lincocin)] | 0.0948 ± 0.032
CCCCC[C@H](O)/C=C/[C@H]1[C@H](O)CC(=O)[C@@H]1CCCCCCC(=O)O [Alprostadil (Caverject)] | 0.0989 ± 0.07
Cc1cc2c(cc1S(N)(=O)=O)S(=O)(=O)CCC2 [Meticrane] | 0.165 ± 0.15
O=C(O)c1cccnc1Nc1cccc(C(F)(F)F)c1 [Niflumic acid] | 0.117 ± 0.094
CNCCCC12CCC(c3ccccc31)c1ccccc12 [Maprotiline hydrochloride] | 0.12 ± 0.06
CCc1cccc2c3c([nH]c12)C(CC)(CC(=O)O)OCC3 (centres undefined) [Etodolac (Lodine)] | 0.0781 ± 0.053
CCOC(=O)c1c(CSc2ccccc2)n(C)c2cc(Br)c(O)c(CN(C)C)c12 [Arbidol HCl] | 0.1 ± 0.071
CC(C)NCC(O)c1cc(O)cc(O)c1 (centres undefined) [Metaproterenol Sulfate] | 0.178 ± 0.17
CCC(=O)O[C@]1(C(=O)SCF)[C@H](C)C[C@H]2[C@@H]3C[C@H](F)C4=CC(=O)C=C[C@]4(C)[C@@]3(F)[C@@H](O)C[C@@]21C [Fluticasone propionate (Flonase, Veramyst)] | 0.149 ± 0.11
CNCCC(Oc1ccc(C(F)(F)F)cc1)c1ccccc1 (centres undefined) [Fluoxetine  HCl] | 0.114 ± 0.092
Cc1ccc(C)c(OCCCC(C)(C)C(=O)O)c1 [Gemfibrozil (Lopid)] | 0.106 ± 0.069
CCN(CC)CCOC(=O)C(c1ccccc1)c1ccccc1 [Adiphenine HCl] | 0.0817 ± 0.064
CCCCOc1ccc(C(=O)CCN2CCCCC2)cc1 [Dyclonine HCl] | 0.109 ± 0.093
C[C@H](Cn1cnc2c(N)ncnc21)OCP(=O)(O)O [Tenofovir (Viread)] | 0.113 ± 0.088
CC(=O)[C@H]1CC[C@H]2[C@@H]3C=CC4=CC(=O)CC[C@@]4(C)[C@@H]3CC[C@]12C [Dydrogesterone] | 0.132 ± 0.11
COc1ccc2[nH]cc(CCNC(C)=O)c2c1 [Melatonin] | 0.101 ± 0.062
C[C@H]1C[C@@H]2[C@H]([C@@H](O)C[C@@]3(C)[C@H]2CC[C@]3(O)C(=O)CO)[C@@]2(C)C=CC(=O)C=C12 [Methylprednisolone] | 0.161 ± 0.083

Single entries from above.
Cc1ccc(C)c(OCCCC(C)(C)C(=O)O)c1 [Gemfibrozil (Lopid)] – fraction of reporter-positive cells with nuclear: 0.106 ± 0.069
COc1ccc2[nH]cc(CCNC(C)=O)c2c1 [Melatonin] – fraction of reporter-positive cells with nuclear: 0.101 ± 0.062
